Experimental data reported in publication PMC8213154, “Replacement of Arg in the conserved N-terminal RLFDQxFG motif affects physico-chemical properties and chaperone-like activity of human small heat shock protein HspB8 (Hsp22)” (PLoS ONE, 2021).
Where a chain is given by its changes, count along the chain named. In names and notes the source's numbering stands. Results are given in words; binding and its absence hold for the method and conditions named. Some binding calls cover weakened binding; strength is not graded here. Values belong to the binder of their own block, whether it stands above or below them.

Experiments:
[1] = molecular target: T1, human small heat shock protein HspB8 (Hsp22), wild type (human), Q9UJY1; test: SEC-MALS; Superdex 200 Increase 10/30; 20 mM Tris/acetate pH 7.6, 150 mM NaCl, 0.1 mM EDTA, 0.1 mM PMSF, 2 mM DTT; 200–250 μg of HspB8 WT or R29A, or 400 μg of Δ28–32 loaded; both purified; details: remark: other sources report otherwise
T1 chain: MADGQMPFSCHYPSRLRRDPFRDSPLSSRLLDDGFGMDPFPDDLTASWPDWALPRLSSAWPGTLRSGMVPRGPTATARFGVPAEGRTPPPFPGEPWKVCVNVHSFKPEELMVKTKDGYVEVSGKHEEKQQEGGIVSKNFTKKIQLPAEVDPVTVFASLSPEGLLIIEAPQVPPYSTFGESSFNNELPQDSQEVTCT

[2] = molecular target: human small heat shock protein HspB8 (Hsp22), wild type (human) (UniProt Q9UJY1); test: SEC; size-exclusion chromatography in the presence of 6 M guanidinium chloride; apparent Mw from column calibration; both purified
[3] = molecular target: T2, yeast alcohol dehydrogenase (yeast) (UniProt P00330); test: co-sedimentation; yADH 0.16 mg/ml with HspB8 species 0.32 mg/ml in phosphate-buffered saline, 42°C, aggregation induced by DTT; samples centrifuged after incubation and the pellet analysed; both purified
T2 sequence: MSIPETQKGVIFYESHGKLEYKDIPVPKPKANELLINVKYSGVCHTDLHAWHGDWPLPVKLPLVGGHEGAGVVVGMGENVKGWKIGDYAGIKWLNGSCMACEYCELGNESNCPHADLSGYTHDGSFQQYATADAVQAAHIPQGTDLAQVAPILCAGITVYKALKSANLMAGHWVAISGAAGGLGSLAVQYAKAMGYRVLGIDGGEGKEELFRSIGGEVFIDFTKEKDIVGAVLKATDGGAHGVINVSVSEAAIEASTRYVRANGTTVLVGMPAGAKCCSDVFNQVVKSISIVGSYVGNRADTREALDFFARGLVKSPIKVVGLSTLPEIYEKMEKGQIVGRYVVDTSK

[4] = molecular target: HspB8 R29A mutant (human) (UniProt Q9UJY1); test: SEC; size-exclusion chromatography in the presence of 6 M guanidinium chloride; apparent Mw from column calibration; both purified
[5] = molecular target: HspB8 Δ28–32 mutant (human) (UniProt Q9UJY1); test: as above

B2: human small heat shock protein HspB8 (Hsp22), wild type (protein, UniProt Q9UJY1 1-196)
chain: T1 chain
- binding [2]: no binding (condition: in 6 M guanidinium chloride)
- binding [3]: binds

B4: HspB8 Δ28–32 mutant (natural protein, human, UniProt Q9UJY1 1-196, looked up)
chain: MADGQMPFSCHYPSRLRRDPFRDSPLSDGFGMDPFPDDLTASWPDWALPRLSSAWPGTLRSGMVPRGPTATARFGVPAEGRTPPPFPGEPWKVCVNVHSFKPEELMVKTKDGYVEVSGKHEEKQQEGGIVSKNFTKKIQLPAEVDPVTVFASLSPEGLLIIEAPQVPPYSTFGESSFNNELPQDSQEVTCT
notes: human HspB8 (Hsp22), Uniprot Q9UJY1, with the pentapeptide 28SRLLD32 deleted; calculated Mw of monomer 21.0 kDa; Made by PCR from the HspB8 WT cDNA and ligated into pET23 via NdeI and XhoI; No tag is named; also called Δ mutant; deletion mutant of HspB8
- binding [5]: no binding (condition: in 6 M guanidinium chloride)
- binding [3]: binds

Further lines, with some results ahead:

- binding [1]: binds
B1: human small heat shock protein HspB8 (Hsp22), wild type, Q9UJY1 1-196 (protein)
chain: T1 chain

- binding [3]: no binding
B3: HspB8 R29A mutant (natural protein, human, UniProt Q9UJY1 1-196, looked up)
chain: T1 chain with R29A
notes: human HspB8 (Hsp22), Uniprot Q9UJY1, carrying the R29A mutation; calculated Mw of monomer 21.5 kDa; No tag is named
- binding [4]: no binding (condition: in 6 M guanidinium chloride)
